This is an account of results in PubChem BioAssay AID662 (National Center for Advancing Translational Sciences (NCATS), 2007).

Structures are written as SMILES. Several values for one entry are separate records, joined by “and”; a condition that tells them apart may be missing. Equal values may be shown once. The list shows a part of the results. Further columns of the screen follow, without active or inactive calls. Most of these compounds were active or inconclusive in the main read-out, so they are no random draw. Words in brackets tell the shape of the fitted curve; partial curves, single points and poor fits give uncertain potencies.

This assay in a line: Cell signaling CRE-BLA (Fsk stim). The note with it: CHO CRE-bla reporter (cAMP response element driving beta-lactamase), forskolin EC10, beta-lactamase ratio; measured here: 460 nm blue channel. The essentials: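 Reporter-gene assay: CHO cells with beta-lactamase behind cAMP responsive elements, co-treated with compound and EC10 NKH 477 for 3 hours at 37 degrees Celsius. Activity came from the 460/530 nm CCF4 emission ratio.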
As a reminder, the AC50 is the concentration at which the activity in the assay is half-maximal. As for `CCOC(=O)c1cc(-c2ccncc2)nc2c1c(C)nn2-c1ccccn1`, the concentration at half-maximal activity (AC50) is 0.631 µM [rising, full curve].
To `O=C(Nc1ccc(Cl)cc1C(=O)Nc1ccccn1)c1ccco1` belongs 10 µM [rising, partial curve]; to `O=C(CSc1ncccc1-c1nc2ccccc2[nH]1)NCc1ccco1`, 6.31 µM [falling, partial curve].
To `Cc1ccc(-n2nc(C)c3cc(C(=O)O)sc32)cc1` belongs 7.94 µM [rising, partial curve]; to `COC(=O)c1cc(Br)c(=O)n(CCC2=CCCCC2)c1`, 20 µM [rising, single point]; to `CCCSc1nc2c(cnn2-c2ccc(C)cc2)c(=O)[nH]1`, 5.01 µM [rising, partial curve].
Take `COc1cc(-c2nc(S(=O)(=O)c3ccc(C)cc3)c(N(C)C)o2)cc(OC)c1OC`: the AC50 was 0.794 µM [rising, full curve].
`CCOC(=O)CNc1nc(-c2ccncc2)nc2ccccc12`: the AC50 was 5.01 µM [rising, partial curve].
As to `Cc1cccc(CCNC(=O)CCc2nc(-c3ccccc3F)no2)c1`, the AC50 is 0.00501 µM [falling, full curve, poor fit].
In the case of `Cc1ccc2nc(Nc3ccc4[nH]c(=O)[nH]c4c3)c(-n3nc(C)cc3C)nc2c1`, the AC50 is 25.1 µM [rising, single point].
In the case of `O=C(CN1C(=O)NC2(CCCCCC2)C1=O)c1ccc2c(c1)OCCO2`, the AC50 was 5.01 µM [falling, single point].
To `C(=N\n1cnnc1)/c1cn(-c2cccs2)nc1-c1ccccc1` belongs 12.6 µM [rising, single point]; to `O=C1CCCN1CCCNc1ncnc2c1[nH]c1ccccc12`, 25.1 µM [rising, single point].
To `O=C(NCC1CCCO1)NC1(C(F)(F)F)Oc2ccccc2O1` (configuration not stated) belongs 10 µM [falling, partial curve].
To `CSc1oc(-c2ccco2)nc1S(=O)(=O)c1ccc(Br)cc1` belongs 10 µM [rising, partial curve]; to `COc1ccc(N/C(N)=N/c2nc(CSc3ccc(C)cc3)cc(=O)[nH]2)cc1`, 0.398 µM [rising, full curve].
With `CCOC(=O)C1CCCN(C(=O)c2cnn3c(C(F)F)cc(-c4ccc(C)cc4)nc23)C1` (configuration not stated), the AC50 was 12.6 µM [rising, partial curve].
To `CCn1nnnc1NCc1cccn1C` belongs 10 µM [rising, single point].
Regarding `COC(=O)c1sc(N2C(=O)C(O)=C(C(=O)c3ccc(C)o3)C2c2ccc(F)cc2)nc1C` (configuration not stated), the AC50 is 3.16 µM [rising, single point].
To `C=CCOc1cccc(C2C(C(=O)c3ccc(C)o3)=C(O)C(=O)N2c2nccs2)c1` (configuration not stated) belongs 12.6 µM [rising, single point]; to `CCOC(=O)NCCc1c(C)nc2c(c(C)nn2C(C)(C)C)c1C`, 6.31 µM [rising, partial curve, poor fit].
Consider `COc1cccc(-c2cc(NCc3ccccc3)ncn2)c1`, for which the AC50 is 7.94 µM [rising, partial curve].
`Cc1cc(NC(=O)CSc2nc(CCC3CCCC3)nc3ccccc23)no1`: the AC50 is 0.126 µM [falling, single point].
To `CCOC(=O)C1CCN(C(=O)COc2cc(C)c(Br)c(C)c2)CC1` belongs 10 µM [rising, partial curve]; to `CCn1nc(C(=O)OCC(=O)N2c3ccccc3CC2C)c2ccccc2c1=O` (configuration not stated), 0.00316 µM [falling, full curve, poor fit]; to `CCn1c(=O)cc(SCC(=O)N2CCCCC2)c2ccccc21`, 10 µM [rising, partial curve, poor fit].
To `O=c1c(-c2ccc(O)cc2)coc2cc(O)ccc12` belongs 31.6 µM [falling, partial curve, poor fit]; to `O=C(O)CCn1cnc2ccccc2c1=O`, 0.631 µM [falling, single point].
`COc1cc2ccccc2cc1C(=O)Nc1cccnc1`: the concentration at half-maximal activity (AC50) was 7.94 µM [rising, partial curve].
To `CN1CCCN(Cc2ccccc2C(F)(F)F)CC1` belongs 0.398 µM [rising, full curve]; to `CC(C)OC(=O)CSc1nc2ncc(Cl)cc2[nH]1`, 3.98 µM [rising, single point].
To `O=C1CC(c2ccccc2)CN1C(=O)c1ccccc1` (configuration not stated) belongs 0.01 µM [falling, full curve]; to `CCCCc1c(O)nc(SCC(=O)c2ccccc2)[nH]c1=O`, 31.6 µM [falling, single point]; to `Cc1nn(Cc2ccccc2Cl)c(C)c1C(=O)N1CCN(c2ccccc2)CC1`, 0.251 µM [falling, partial curve].
To `COc1cc(C(=O)Nc2nnc(C)s2)cc(OC)c1OC` belongs 10 µM [rising, single point].
As for `CCOC(=O)c1c(NC(=O)CSc2nnc(C)c(=O)[nH]2)sc2c1CCC2`, the AC50 was 12.6 µM [rising, partial curve].
To `CC(C(=O)NC1=NCCS1)(C(F)(F)F)C(F)(F)F` belongs 12.6 µM [rising, single point]; to `CC(NC(=O)COC(=O)CCNC(=O)c1ccco1)C12CC3CC(CC(C3)C1)C2` (configuration not stated), 2 µM [rising, partial curve, poor fit].
To `CSc1ccccc1C(=O)Nc1cccc(N(C)S(C)(=O)=O)c1` belongs 0.00398 µM [falling, full curve, poor fit]; to `O=c1[nH]c2ccc(S(=O)(=O)N3CCN(Cc4ccccc4)CC3)cc2[nH]c1=O`, 0.00398 µM [falling, full curve, poor fit].
To `CCOc1ccc(N2CC(C(=O)OC)CC2=O)cc1` (configuration not stated) belongs 0.00316 µM [falling, full curve, poor fit]; to `NC(=O)C1CCN(C(=O)C2c3ccccc3C(=O)N3CCc4ccccc4C23)CC1` (configuration not stated), 0.0398 µM [falling, full curve, poor fit]; to `O=C(NCc1cccnc1)C(C(=O)c1ccc(F)cc1)n1ccccc1=O` (configuration not stated), 0.1 µM [falling, full curve, poor fit].
`COc1ccc(Oc2ncc3nc(-c4ccc(OC)cc4)c(=O)n(C4CC4)c3n2)cc1`: the AC50 was 10 µM [rising, partial curve].
To `COc1c(C)c2c(c(O)c1C/C=C(\C)CCC(=O)O)C(=O)OC2` belongs 126 nM [falling, full curve, poor fit] and 10 µM [falling, single point]; to `Cc1noc(C)c1COC(=O)Cn1c(C)nc2ccccc21`, 3.98 µM [falling, partial curve]; to `CCOC(=O)NCc1cc(-c2nn(C)c(=O)c3ccccc23)ccc1C`, 3.98 µM [rising, partial curve].
To `CCn1c2c(c3ccc(OC)cc31)CCCC2=O` belongs 12.6 µM [rising, single point]; to `c1ccc2c(c1)[nH]c1c(N3CCCC3)ncnc12`, 15.8 µM [rising, partial curve].
To `C[C@H](Oc1ccc(Oc2cnc3ccc(Cl)cc3n2)cc1)C(=O)O` belongs 2.51 µM [falling, single point]; to `CC(C)c1ccc(S(=O)(=O)N2CCN(CC(=O)Nc3ccc4c(c3)OCO4)CC2)cc1`, 5.01 µM [rising, full curve, poor fit]; to `CCOC(=O)C1=C(C)NC(C)=C(C(=O)OCC)C1C(=O)OCC(=O)N1CCc2ccccc2C1`, 0.158 µM [falling, full curve, poor fit].
For `COCCn1c(=O)c(C)nc2cnc(N3CCOCC3)nc21`, the AC50 was 15.8 µM [rising, partial curve].
To `CCOc1nc(-c2ccc(OC)cc2)ccc1-c1noc(-c2ccncc2)n1` belongs 10 µM [rising, single point]; to `COc1ccccc1OCC(O)Cn1c(=N)n(Cc2ccccc2)c2ccccc21` (configuration not stated), 3.98 µM [falling, partial curve].
To `COc1ccc(-c2cc(C(=O)N3CC4(C)CC3CC(C)(C)C4)no2)cc1` (configuration not stated) belongs 0.00398 µM [falling, full curve, poor fit].
For `O=C(Nc1ccc2nc(-c3cccnc3)[nH]c2c1)c1ccco1`, the concentration at half-maximal activity (AC50) was 10 µM [rising, partial curve].
To `CN1CCN(c2ncc3nc(-c4cc(F)cc(F)c4)c(=O)n(-c4ccccc4)c3n2)CC1` belongs 5.01 µM [rising, partial curve]; to `CCOC(=O)c1cnn2c(C)cc(-c3ccccc3)nc12`, 6.31 µM [rising, partial curve].
To `COc1cccc(-c2cnc(NCc3cc(Cl)ccc3O)n2C)c1` belongs 20 µM [falling, partial curve]; to `COc1ccc(-c2noc(-c3ccccc3Cl)n2)cc1OC`, 20 µM [rising, single point].
In the case of `COC(=O)c1c(-c2cc(OC)c(OC)c(OC)c2)c2ccc(OCc3ccccn3)cc2c(=O)n1-c1ccc(N)cc1`, the AC50 was 12.6 µM [rising, partial curve].
To `O=C(O)[C@@H]1[C@H](C(=O)O)[C@H]2C(=O)C=C[C@H]1N2Cc1ccccc1` belongs 3.98 µM [falling, single point].
Consider `CCCCNC(NCCCC)=C(S(=O)(=O)CC)S(=O)(=O)CC`, for which the AC50 is 0.398 µM [rising, partial curve].
On to `Cc1c(C(=O)N2CCN(C(=O)c3ccco3)CC2)sc2nc(-c3ccc(F)cc3)cn12`, for which the AC50 was 5.01 µM [rising, partial curve].
To `COc1ccccc1CNc1nc(-c2ccccc2CN(C)C)nc2ccccc12` belongs 7.94 µM [rising, partial curve].
To `CN1CCN(CCCNC(=O)c2cc3c(=O)oc4ccccc4c3s2)CC1` belongs 10 µM [rising, partial curve].
